Data as given in PubChem BioAssay AID1347417 (National Center for Advancing Translational Sciences (NCATS), 2020).
Out of some 120,000 compounds screened, about 5,300 (4.4%) were called active. These results got no clear call from the source, so the numbers are uncertain. Calls come from the whole dose curve; as a rule, active = well fitted inhibition curve with a large enough effect; inconclusive = small, poorly fitted or top-dose-only effect; inactive = no such curve, though single readings can be large or run the other way.
Potency is the fitted concentration of half-maximal effect.

Experiment: qHTS Primary assay for Inhibitors of Plasmodium falciparum Dd2 growth in vitro; note: nearly all actives have a fitted effect of over 65% in size
Conditions: P. falciparum Dd2 growth, SYBR Green, 72 h
Description: Malaria, a parasitic disease spread to humans through the bite of a Plasmodium infected Anopheles mosquito, continues to be a global health burden affecting millions of people, with an estimated 228 million cases and 405,000 deaths in 2018. Concerns about safety and limitations of current antimalarial treatments strongly emphasize the need to develop new therapeutic options. The scarce number of chemotypes and validated drug targets with efficacy against the liver stage, have hindered development of new antimalarials. To address this, a chemoprophylactic drug discovery effort was conducted through a combined phenotypic high-throughput asexual blood stage and liver stage screen, providing a robust foundation to identify liver-stage active lead chemotypes. Compounds were initially screened against Plasmodium falciparum Dd2 strain parasites using a in vitro SYBRGreen-1 based 72 hr proliferation assay to identify novel chemotypes to advance to liver stage assays. NIH/NCATS Early Translation Branch Assay Submitter (PI): Anton Simeonov Ph.D.
Malaria-vivax Assay Protocol: PROTOCOL TABLE (as described by Inglese et al., 2007) SEQUENCE No. (e.g., 1, 2, 3, etc.); […] (e.g., Cells, Incubation, Reagent, etc.); VALUE; DESCRIPTION SEQUENCE, Parameter, Description 1; Reagent; 3 uL complete malaria growth medium, 1536 TC treated Black clear bottom plate 2; Controls; 23 nL positive control artesunate (300 nM final) to column 1; Neutral control DMSO to columns 2-4 3; Compound; 23 nL of compounds in dose response concentration (29 uM to 0.5 nM final) 4; Reagent; 5 uL malaria infected red blood cells (2.5% hematocrit final, 0.3% parasitemia 5; Time; 72 hours at 37C (5% O2, 5% CO2, 90% N2; 95% Rh) 6; Reagent; 2 uL lysis buffer/SYBRGreen-1, 25 sec shake immediately following dispense 7; Time; ~16 hours at 37C (5% O2, 5% CO2, 90% N2; 95% Rh) 8; Detector; EnVision (PerkinElmer) bottom read at 485/14nm excitation and 535/25 nm emission NOTES (numbers refer to sequence above): 1; Complete Malaria Growth Media: 1X RPMI-1640 w/L-glutamine, 5.5g/L Albumax II, 367 uM Hypoxanthine, 25 mM HEPES, 0.25% Sodium Bicarbonate, 35 uM Gentamicin sulfate 2; Controls were added using the Kalypsis Pintool (Wako USA) equipped with 1536 pinhead 3; Compounds were added in a 7-point, titration with a high final concentration of 29 uM by Pintool from seven inter-plate titrations of library plates and two DMSO control plates at the beginning and end (see Yasgar et al., 2008). 4; Red blood cells infected with Plasmodium falciparum Dd2 parasites were used. 6; Lysis buffer: 20 mM Tris-HCl, 10 mM EDTA, 0.16% Saponin, 1.6% Triton-X, 10X SYBR Green. REFERENCE: Inglese J, Shamu CE, Guy RK. 2007. Reporting data from high-throughput screening of small-molecule libraries. Nat Chem Biol. doi:10.1038/nchembio0807-438 Yasgar A, Shinn P, Jadhav A, Auld D, Michael S, Zheng W, Austin CP, Inglese J, Simeonov A. 2008. Compound Management for Quantitative High-Throughput Screening. J Lab Autom 13:79-89. doi:10.1016/j.jala.2007.12.004
For `CCCCOc1ccccc1C(=O)NCC1(N2CCOCC2)CCCCC1`, the Potency was inconclusive: 15.8 µM.
For `CN(C)C1(CNC(=O)c2ccc(C(C)(C)C)cc2)CCCCC1`, the Potency was inconclusive: 11.2 µM.
For `Cc1ccccc1C(=O)NCC1(N(C)C)CCCCC1`, the Potency was inconclusive: 5.01 µM.
For `CC(C)(C)c1ccc(C(=O)NCC2(N3CCOCC3)CCCCC2)cc1`, the Potency was inconclusive: 11.2 µM.
With `O=C(NCC1(N2CCOCC2)CCCCC1)c1ccc([N+](=O)[O-])cc1` the Potency was inconclusive: 20 µM.
